Laboratory results taken from paper PMC6105217.
No constants are given. Whether binding was seen depends on the method and setting. In cells and extracts the contact can be indirect. Here binding means that the protein was enriched with, or labelled near, the bait; the list need not be complete. Tags and fused reporters may be left off the sequences shown.

T1: N-His-aIF5A produced in Sso PH1-16 (pMJ05-N-His-aIF5A) (Sulfolobus solfataricus) (UniProt Q97ZE8)
T1 sequence (chain, modified, recognised by anti-hypusine antibodies (hypusine or deoxyhypusine)): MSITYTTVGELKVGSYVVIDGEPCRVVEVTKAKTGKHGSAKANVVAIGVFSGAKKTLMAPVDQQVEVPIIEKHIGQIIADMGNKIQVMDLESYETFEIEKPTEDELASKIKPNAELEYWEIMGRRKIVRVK


Target: T1, N-His-aIF5A produced in Sso PH1-16 (pMJ05-N-His-aIF5A) (Sulfolobus solfataricus)
Assay: affinity purification with mass spectrometry; N-His-aIF5A and co-purifying proteins from lysate of Sso PH1-16 (pMJ05-N-His-aIF5A) on Ni-NTA agarose; wash with 300 mM NaCl; whole eluate digested with trypsin, LC-MS/MS, label free quantification against a mock purification; enriched more than …

| binding | Binder |
| --- | --- |
| binds | Sugar phosphate nucleotydyl transferase (protein, UniProt Q97ZD1 1-422) MMTKWDISDVKVIIPIGGEATRLRPLTIETSKAAVRLLNRPLIEYTILELAKQGIKEFIFGVKGYVNYRSLFDLFKEGIGFSARYKIKPRVHFKYQPRVDSIGNADSVRINIEYYDINEPIVVVQGDNIFKLDITKALEFHESKSSLMTIVLKKYEGDLSEFGVADTTGDLAIRKFVEKPKRREDAPSDLINTGIYILSPEIRKIFKSNDVKEMYKMGKMDFGKDIIPYLINKGYPVYGYPMKEIWFDIGTPERYLDAMVTLLHTLSDSEIGGIRIDPNRRIFVQGTSPDSRKRRREIQRKFKKGLIKIEGDALIGRHCQIGDDTYIEESNIDNFTMIGKGVKIVRSAIMDRGYIGDNVHIENSIIARHVEIRSNNEKPVRIINSVIADDVIVGEGTEIINSRIYPHKFINAGSRIHDTILT |
| binds | Nad kinase (protein, UniProt Q97WJ8 1-249) MRVKIVSKPTSQLNYTVEKIKNISNKLGFEVVDIDFDYVIAVGGDGTLLRAVKLGKPVIAIKAGRRGLLMDVPVDKIEDALLRLKKGDYNEEEYMLLEMVHNDKVELGFNEIGILYDRPEAIKVGISFDTERVSVEGDGVLVSTPQGSSGWGMSATNSLLYKDLNAIEIIFVNPIFYYLRSVVIPPKSLILRLEDKGYPQTARVVVDGEVVTLIKTNQEITVRVSQHKAKILRFFKLDLIGEVLHAYHI |
| binds | SAM-dependent methyltransferase (protein, UniProt Q97YX4 1-176) MHHHRHYYPPEDFRRTFERPEEYLPNIFEGKKGVIVDYGCGNGFYCKYLLEFATKLYCIDINVIALKEVKEKFDSVITLSDPKEIPDNSVDFILFANSFHDMDDKQHVISEVKRILKDDGRVIIIDWRKENTGIGPPLSIRMDEKDYMGWFSNFVVEKRFNPTPYHFGLVLKRKTS |
| binds | Intracellular proteinase (protein, UniProt Q97Z65 1-173) MDSKKVLFLVGEEFEDIELLYPFYRVMEEGFKPVIAWKEANSKVIGKHGYTVISDIAFKDVRPEDYIALVIPGGRGPEHIRTLEEVKNITRKFFELKKPVAAICHGPQILISANLVKGRKLTSVNSIKDDVIAAGGIYVDNDVVVDENLISSRVPSDLPAFASTLIKALKSIK |
| binds | Translation recovery factor (protein, UniProt Q97VU8 1-124) MREEEIRELYFKYFDENKLPFIQCNKCGHKFYYPRVLCPKCGSSDIEVRFSKGLGKIFAMTKVYRKDGSYVIYGIVELEEGFRMYSNIIEESQADINRKVEVIFKEINGKKYPLFKTVTHLHNF |
| binds | Serine hydroxymethyltransferase (protein, UniProt Q9UWT5 1-433) MSLPKELEKVLEITKAQNVWRRTQTLNLIASENVMSPLAESVYMSDFMSRYAEGKPYKRYYQGTKYTDEIETLTMELMNEITNSKDCDLRPTSGTIANAAVFRVLAEPGDKALIAPVQAGAHVSHTKFGTLGALGIQHIEMPFDEENINVDVDKAIKMIEEVKPKFVVLGGSLYLFPHPTKELAQHVHAVGAKLVYDAAHVYGLIEGKVWSNPLKDGADIMTVSTHKTFPGPQGGAIFSDGSEVFKQVSKTIFPWFVSNHHLHRLPATAVTAIEMKYFGESYANQILRNSKALAEALAERGFKVIGENLGYTKSHQVAVDVRQFGGGNKIAKLLEDANIIVNKNLLPYDKPEDVSDPSGLRIGVQEMTRYGMKEGEMEEIAELFKKVIIDKKDVNEVKKEVIEMRRNFLEVKYTFDDMKDLEKYSSKSLKLII |
| binds | Xylose isomerase (protein, UniProt Q97UG9 1-237) MFLSSMKLGIQSYSLRKLTYENALKVMSELGISYVEAFPRHLPPSSNSVKDIINLHKENGVKVIAHGVNHLKSDKKELRSIFDFANKVEIEVITADPDEDCLNLMSDLVKEYDIKVAIHNHGPYHRWGSYKKIYEFTKNLDYRVGMCLDLAHLFRYGENPIEAVNTLRDRIHDIHVKDVNNKGEDVIVGSGILDVKGVIGKVKELNLDIPLMIEYEPEPENPLPGIVKSLEYVKKLL |

Further lines, the binder ahead of its results:

| Binder | binding |
| --- | --- |
| 3-Hydroxyacyl-CoA dehydrogenase (protein, UniProt Q97VU5 1-663) MKVEDIKKILVVGAGTMGHGIAEIAAISGYKVYLSDISQDILNNALERIRWSLSKLQERGQIKESVDTIMSRITTIVGLDKTVSDADFSIEASTERMDIKRQVFSKLDELLPPHAILATNTSSLPISKIAEATKRQDKVVGMHFFNPPVLMQLVEVMKGDKTSDETAKITYDLAKKFGKQPIMINKDVPGYVVNRILGQINIASCILVEKKVADYREVDAVARYKLGFPMGVFELIDYTGVDVAYYVSKSREELGIRDDIPICSLIEQKFKNNELGVKTGKGFYTYPAPGKYVKPELPKELADKLNPALILAGGVNEATRLLREGIASRDDIDLGVRLGLGLPKGIFQYADELGVDTVLKALEDLKALSGYNTFNPDPMITQMIRENKLGIKTGSGFYQYGKVEEKKMNTLIIRIEPPLAWIILNRPERLNALNPELVSELDKSLDELESRSDVRVVIITGNGRAFSAGADVSSFITLRPIDVIRLRTLRNVVNKIALYTKPIIAGINGFALGGGLELAMACDIRIASEVAQLGQPEINIGIIPGAGGTQRLPRLVGKGKAKLMIYTGDMVSAEDAYKMGLVDLVVPSNRFEEEVRRVALKIAEKSPISLLAAKLAIELGYESNIWTGQTLESTLFGLLFTTKDVEEGVKAFLEKRKPQFKGE | binds |
| Dehydrogenase (protein, UniProt Q97V56 1-292) MEDVKKFKYFTVSPLAFGTWRIGGGYWYSSHDRDNEWVGAIRRAIELGLRVIDTAEMYGNGHAEELVGEAIKEFSREELFIVSKVWPSHADYDNVIKSAKNSSRRLGTYIDLYLLHAPSRVPICKTIRAFEKLVDDGVIRFFGLSNFDVDQIESARECVSKYEIVAIQNHYSLLSRSDERRALAYAEKNGLMYMAYTPLENGILARNEFLANIGKKYNKTATQVALNWYITGKNSLIPIVKASKIPHIEENAGAMGWRLSEEDWRAIDEHFREKSYFLDKFVSSLKSMRPWS | binds |
| ATPase AAA (protein, UniProt Q980U9 1-769) MSASSGEEQKPQRKELILRVMEARQKDVGRGKVRIDIDLLSQIDVSPGDVVEIEGTRKTAALAWPLSPEDTTTGEKDIIRMDGITRKNAGVSIGDKVIVRKAIVKPASTVKLAPSNFSITVDPGFISYVKKRLKEFPLVEGDTVLIPVLGQAIPFTVVQVKPAGIVLVNDDTIISISDKPVEPSRYPRVTYEDIGGMKNIIEKVRELVELPLRHPELFKRLGIEPPKGILLYGPPGVGKTLLAKAIANETDAYFTSINGPEIMSKFYGESEQRLREIFEDAKKHAPAIIFVDEIDAIAPKRDEVIGEVERRVVAQLLTLMDGLENRGNVIVIAATNRPSAVDPALRRPGRFDREIEIPLPDKQGRLEILQIHTRNMPLSKDVDLEKLADMTHGYTGADLSALVREAAMNSLRRYLPKIDLNQDKIPPEILESMEVKMEDFINAFKEIVPSGLREIYIEVPEVKWTDIGGLEEIKEELKEVVEYPLKYSELYQNSGIEPPKGILLFGPPGTGKTMLAKAVATESGANFIAVRGPEILSKWVGESEKAVREIFRKARMYAPAVIFFDEIDSIAPIRGISYDSGVTERIVNQLLAEMDGIEKLENVVVIAATNRPDILDPALLRPGRFEKLIYVPPPDKRARTEILKVHTRNIALGEDISLEDVAEKTEGYTGADLAALVREATMRAIRESMKICIDKTNENCKPTDAECRDKTMKECMKVNGVKVSLRHFEEAMRKVKPSVTQDMLQFYQNWVEKARQQLPKTTVKPSTYA | binds |
| Amidohydrolase (protein, UniProt Q97UJ5 1-286) MKSYYMGYVDAHTHVWFKETLPKDFFSNDSGYEYTPPSVQEIIKEMDSVNIDYIVIIAYPSREIWRTKEDFPIAMIKFLKEYGNRFSIVGGIEPNRISLNEAKDWLERQYEAGVSGFKLHPVHSHVKPNAYREEEGGLKQLELLYEFAQDHNLPVVIHTGTSVFLKARNKYADPIFVDDVAVDFPQLKIVLAHMGRPNYVPTAFQLVRIRRNLYGEISSIPPKKLLEYLPRLEEISYKTIYGSDYGGPGIKSISYNLREFLSLNISEKAKLDMGSNNPKALYKPLE | binds |
| Alpha-mannosidase (protein, UniProt Q97UK5 1-968) MRNINELEARLILTLGNSFRNLRQLRWNLENHNKAYLEIEGKGNSYLLIVDHKGSGLIRLDDKPYFELDRYHTLIPIPFGNHKISLELSHYMDFGEKVDISAGIPFYTEIDSNAYKLYVYGSQILDLVRSINDNEVKDDLISALSKALHEAYFETISKEQLFILSKLIRTTLDVSRMVQEIEEPLDVYKEDENRSKFEGALNTLRSELSKLVNKYGKRGVLVGTGHAHIDTAWLWPFDETRRKVLRTFSTILTLLDKYDFHFIQSAAIYYEWVKADSPELFVRIKEKVKEGKWELAALYVESDANMVSGESLARQFLYSQRFYLENFGKLANILWLPDTFGFSASLPQIAKLGGVKAFATHKVFWNDTNKFPYNVFKWVGPNGDYLPAIAFGHGKGGYNSDFSASSVLEQYNNWAQKDQPMLYSYGYGDGGGGPNEDMLIRAEAVNLLPILPKVELSGVNSYIQRIVPVEEWRGELYLETHRGVLTSHSKMKLLNRSAEIALREAELWSTLARTYDKEVFTKLWKVVLKDQFHDVLPGSAIKDVYKVAYQELEEVINKANNVASEAMQKLVGGSGDKTFVFNSLSWDREEYIEADGKLVKVRVPSVGFSLLEPVEVRDKAVINENNAEYLVENKYFRVRISKSGQVLSLFDKEANREVLRDKSNLLIAYENIPGWADAWDIEKGFEDRSFEIRASSSEIVNNDGIVASIKFTYKFRRSEIIQIVRVYADSRRIDFITTLRMRDRELLVKSWFNFDLNVERAVSDIPFGVVERFTWSNTSWDKARFEVPIQKFVDFSESEYGAALLNNGKYGATLRGSSVGLSLTKTPIYPDPSTDLEEVTFIYSLYPHIGDWKRAEVIKRAYELNVPLRVVKGVSEVKRKSFIRINDSKLILEAVKVAEDDNNSVVLRLYEYENTRGEAYVEVPFNVTEARSLDLLELNEVPRDIVIEGNRIKVKYKNRDILTISVRG | binds |
| Acetate kinase (protein, UniProt Q980R6 1-302) MARQPLMIYVGIDPGSETYAFAFVDELGNLIKYFEICTDLVEKSSIFLAKLIADYRPMAVALPSGHGLPFYNIRNINNREIFILTLKDPLSHGPLRDFLLASKQYLSFYNSFTIPSVIELNSLPNDRKVNVIDKGTADKVASTFFYRVYLKLDNFILVEMGRRFTAIVIVINGKIVDGYGGTYLSGLDGEIAYLLHKYSRIDKSTVYNVGRNLELTRIIVEWYSDKYKLPIIVSGYNKNYLEIGKKYDFKFKEAAVGAAFIANAYSGGLLRHYISMLDSSGTPISFVRLKEWDEIISWIETL | binds |
| Aldose 1-epimerase (protein, UniProt Q97V88 1-262) MKIKKGDTEAEILTKGAYLYSFKIGNRDMILRGDLERPTRGGMAILIPFANRVKNAEYVFEGVKYTLPQNREGNAIHGLVMDKEFNVIGKSEDSISLQYILEHEGYPSKLDCVITYKVFKYGLRIKIVVRNVGNKRAPLTVGAHPYFITADDWRIVVEKEESIKKCISFNKIPTGELVKTKLEHTDYDDCFLISGGIQLHSSYSKVRITRRNMPFVQIYTGVRGSIAIEPMSGAPDAYHNGLGLKILEPNESSYFAFAFRFH | binds |
